This note sets out measurements from patent publication US12578329B2, “Reagent kit containing polypeptide for use in detection of intermolecular interactions” (SHIMADZU CORPORATION, priority 2021, dated 2026).

The nature of this series: Measurement of emission spectrum. It counts as biochemical.

B1: picALuc30: SEQ ID NO: 51; amino acids 54 to 175 of ALuc30 wt, without the N terminus and C terminus; 13 kDa luciferase (protein)
chain: KLPGKKLPLEVLKELEANAQKAGCTRGCLICLSHIKCTAKMKKWLPGRCESWEGDKETGQGGIGEAIVDIPEIPGFKELAPMEQFIAQVDLCADCTTGCLKGLANVKCSALLKKWLPSRCAG
modifications: picALuc30
notes: amino acids 54 to 175 of ALuc30 wt, without the N terminus and C terminus; 13 kDa luciferase
Molecule B1 yielded a wavelength peak (reacted with coelenterazine) of 482 nm and a wavelength peak (reacted with coelenterazine h) of 488 nm.
